Drawing on paper PMC10470053, “Diverse p120RasGAP interactions with doubly phosphorylated partners EphB4, p190RhoGAP, and Dok1” (The Journal of Biological Chemistry, 2023), this text covers binding for 4 molecules.

Residue numbers refer to the chain shown, from its start. No constants are given. Whether binding was seen depends on the method and setting. Some binding calls cover weakened binding; strength is not graded here.

Assay [1] addresses T1, RasGAP^232 (p120RasGAP SH2-SH3-SH2 region, residues 174-444) (human).
T1 sequence: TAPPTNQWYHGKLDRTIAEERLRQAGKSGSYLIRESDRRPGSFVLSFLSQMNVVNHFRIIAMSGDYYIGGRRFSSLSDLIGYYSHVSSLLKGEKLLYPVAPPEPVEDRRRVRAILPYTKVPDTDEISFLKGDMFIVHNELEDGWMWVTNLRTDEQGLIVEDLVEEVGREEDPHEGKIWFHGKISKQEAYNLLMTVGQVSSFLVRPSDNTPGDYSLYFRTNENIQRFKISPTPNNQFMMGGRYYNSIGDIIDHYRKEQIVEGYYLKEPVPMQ
Put plainly: SEC-MALS; in-line SEC-MALS-SAXS, Superdex 200 Increase 10/300 GL; 0.5 mM peptide added to 0.1 mM RasGAP^232; 20 mM Tris pH 8, 350 mM NaCl, 1 mM DTT; 22 °C; both purified. (In general: Size exclusion chromatography separates by hydrodynamic size, large species first.)

Assay [2] addresses T2, RasGAP^2(mut)32(mut) (RasGAP^232 with R207A and R398E/K400E) (human) (UniProt P20936).
T2 sequence: T1 sequence with R34A, R225E, K227E
Put plainly: ITC; protein in the 190 ul sample cell, titrated 20 times with 2.5 ul peptide from the syringe; 20 mM Tris pH 8, 250 mM NaCl; Nano ITC (TA Instruments); independent binding model; both purified. Background: In ITC the heat of successive injections is recorded.

Assay [3] deals with T3, RasGAP^232 (p120RasGAP N-SH2, SH3 and C-SH2 domains, residues 174-444) (human) (UniProt P20936).
T3 sequence: T1 sequence
The experiment in a line: native gel or EMSA; 0.5 mM peptide added to 0.1 mM RasGAP^232, run over Superdex 75 into 20 mM Tris pH 8, 350 mM NaCl, 1 mM DTT; presence of peptide after elution confirmed by native gel shift; samples then used for SEC-MALS-SAXS; both purified. (A gel shift assay detects complexes by their altered migration in electrophoresis.)

As to GTKVYIDPFTYEDPNEA (phosphotyrosine at 590 and 596; N-terminal acetylation; C-terminal amidation) [doubly phosphorylated EphB4 peptide (residues 586-602)], the binding result in assay [1] was “binds”.

As to GTKVYIDPFTYEDPNEA (phosphotyrosine at 590 and 596; N-terminal acetylation; C-terminal amidation) [doubly phosphorylated EphB4 peptide (residues 586-602, pY590 and pY596)], in assay [2], the binding result is “no binding”. SDYAEPMDAVVKPRNEEENIYSVPH (phosphotyrosine at 1087 and 1105; N-terminal acetylation; C-terminal amidation) [doubly phosphorylated p190RhoGAP-A peptide (pY1087 and pY1105)]: in assay [3], the binding entry is “binds”.

For SDYAEPMDAVVKPRNEEENIYSVPH (phosphotyrosine at 1087 and 1105; N-terminal acetylation; C-terminal amidation) [doubly phosphorylated p190RhoGAP-A peptide], the binding result in assay [1] is on record as “binds”.
